Measured values from doi:10.1101/2020.08.17.253450.
Like-named read-outs stand apart in the source and are kept apart here. No constants are given. Whether binding was seen depends on the method and setting. Some results given as binding are weak or reduced against the parent protein; the word gives no strength.

Experiments:
[1] = biological target: T1, human TMEM39A second cytoplasmic loop domain (a.a. 337-420) (human) (UniProt Q9NV64); assay: two-hybrid
T1 sequence: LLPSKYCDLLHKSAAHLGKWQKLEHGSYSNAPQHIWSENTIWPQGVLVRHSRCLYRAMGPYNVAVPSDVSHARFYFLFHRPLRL

[2] = biological target: T1, human TMEM39A second cytoplasmic loop domain (a.a. 337-420) (human); assay: two-hybrid; remark: listed apart in the source

B1: human Sec23A C-termini (a.a. 583-765) (domain or fragment, UniProt Q15436 583-765)
chain: HLRRSSFLQVFNNSPDESSYYRHHFMRQDLTQSLIMIQPILYAYSFSGPPEPVLLDSSSILADRILLMDTFFQILIYHGETIAQWRKSGYQDMPEYENFRHLLQAPVDDAQEILHSRFPMPRYIDTEHGGSQARFLLSKVNPSQTHNNMYAWGQESGAPILTDDVSLQVFMDHLKKLAVSSAA
With B1 the binding [1] was “binds” and the binding [2] was “binds”.
